From US20070060617A1, “2-Methoxy-5(5-trifluoromethyl-tetrazol-1-yl-benzyl)-2s-phenyl-piperdin-3s-yl)-amine for the treatment of social phobia” (priority 2004, published 2007)
For at least one compound, name, drawing or mass did not settle the structure.

Tested on: patients suffering from social phobia (Social Anxiety Disorder)
Assay: double-blind, placebo-controlled study in patients suffering from social phobia (self-report questionnaires, state anxiety measures, verbal performance, PET)
Type: in vivo, human
Conditions: SSRI group, daily oral dose of 40 mg, six weeks
From the text: The first study was a double-blind, placebo-controlled study of the effect of [2-methoxy-5-(5-trifluoromethyl-tetrazol-1-yl-benzyl)]-(2-phenyl-piperidin-3-yl)-amine dihydrochloride in patients suffering from social phobia (otherwise known as Social Anxiety Disorder). Thirty six patients aged between 19 and 48 meeting the DSM-IV criteria for social phobia (as set out in Diagnostic and Statistical Manual of Mental Disorders, 4th Edition, published by the American Psychiatric Association) were selected. […] The effect of [2-methoxy-5(5-trifluoromethyl-tetrazol-1-yl-benzyl)]-(2-phenyl-piperidin-3-yl)-amine dihydrochloride on anxiety symptoms and brain activity in patients diagnosed with social phobia was evaluated using self-report questionnaires (the Social Phobia Scale (SPS), the Social Interaction Anxiety Scale (SIAS), the Personal Report on Confidence as a Speaker (PRCS), the Social Phobia Screening Questionnaire (SPSQ), the Sheehan Disability Inventory (SDI), self-report versions of the Liebowitz Social Anxiety Scale (LSAS-SR) and the Global Assessment of Functioning (GAF) scale), state anxiety measures (the Speilberger state-anxiety inventory (STAI-S), subjective ratings of fear and distress on 0-100 (min-max) scales and heart rate), verbal performance (comparing the number of spoken syllables during the first ten seconds of each videotaped speech) and PET assessments.

## CN(C)CCCC1(c2ccc(F)cc2)OCc2cc(C#N)ccc21 (centres unmarked) [citalopram]
  effect compared with placebo: generally superior to placebo
  improvement of patients with social phobia after short-term treatment: significantly improved
